Laboratory results taken from patent US8936787B2, “Peptides promoting lipid efflux” (The United States of America as represented by the …, priority 2008, dated 2015).
Some entries share one result that the patent states for a list of compounds.

System: control cells
Type: binding
Settings: maximum concentration tested; 4° C.

Question: How did the “binding of radiolabeled L-37pA to control cells blocked by competitor” value turn out when “apoA-I: apolipoprotein A-I, the predominant protein constituent of HDL” was run?
Answer: Its value is “less than 5%”.
